Data from patent US12729225B2, “Non-canonical SWI/SNF complex and uses thereof” (Dana-Farber Cancer Institute, Inc., priority 2018, dated 2026).

Tested on: mSWI/SNF complexes
Experiment: mSWI/SNF complex purification with HA-tagged baits and mass spectrometry (peptide counts)
Parameters: species or system human
[1] = 293_HA-BRD7: HA-BRD7 bait purification, total peptide count per co-purified protein
[2] = 293_HA-BRD7: HA-BRD7 bait purification, unique peptide count per co-purified protein
[3] = total peptide count of the co-purified protein, 293_HA-BRD9 (HA-BRD9 bait, mass spectrometry), Table 3b
[4] = unique peptide count of the co-purified protein, 293_HA-BRD9 (HA-BRD9 bait, mass spectrometry), Table 3b

Molecule	Total [1]	Unique [2]	Total [3]	Unique [4]	Total (293_HA-BRD7 bait purification, mass spectrometry, total peptides per co-purified protein)	Unique (293_HA-BRD7 bait purification, mass spectrometry, unique peptides per co-purified protein)
MYBBP1A (protein, UniProt Q9BQG0 1-1328, looked up) Myb-binding protein 1A: MESRDPAQPMSPGEATQSGARPADRYGLLKHSREFLDFFWDIAKPEQETRLAATEKLLEYLRGRPKGSEMKYALKRLITGLGVGRETARPCYSLALAQLLQSFEDLPLCSILQQIQEKYDLHQVKKAMLRPALFANLFGVLALFQSGRLVKDQEALMKSVKLLQALAQYQNHLQEQPRKALVDILSEVSKATLQEILPEVLKADLNIILSSPEQLELFLLAQQKVPSKLKKLVGSVNLFSDENVPRLVNVLKMAASSVKKDRKLPAIALDLLRLALKEDKFPRFWKEVVEQGLLKMQFWPASYLCFRLLGAALPLLTKEQLHLVMQGDVIRHYGEHVCTAKLPKQFKFAPEMDDYVGTFLEGCQDDPERQLAVLVAFSSVTNQGLPVTPTFWRVVRFLSPPALQGYVAWLRAMFLQPDLDSLVDFSTNNQKKAQDSSLHMPERAVFRLRKWIIFRLVSIVDSLHLEMEEALTEQVARFCLFHSFFVTKKPTSQIPETKHPFSFPLENQAREAVSSAFFSLLQTLSTQFKQAPGQTQGGQPWTYHLVQFADLLLNHSHNVTTVTPFTAQQRQAWDRMLQTLKELEAHSAEARAAAFQHLLLLVGIHLLKSPAESCDLLGDIQTCIRKSLGEKPRRSRTKTIDPQEPPWVEVLVEILLALLAQPSHLMRQVARSVFGHICSHLTPRALQLILDVLNPETSEDENDRVVVTDDSDERRLKGAEDKSEEGEDNRSSESEEESEGEESEEEERDGDVDQGFREQLMTVLQAGKALGGEDSENEEELGDEAMMALDQSLASLFAEQKLRIQARRDEKNKLQKEKALRRDFQIRVLDLVEVLVTKQPENALVLELLEPLLSIIRRSLRSSSSKQEQDLLHKTARIFTHHLCRARRYCHDLGERAGALHAQVERLVQQAGRQPDSPTALYHFNASLYLLRVLKGNTAEGCVHETQEKQKAGTDPSHMPTGPQAASCLDLNLVTRVYSTALSSFLTKRNSPLTVPMFLSLFSRHPVLCQSLLPILVQHITGPVRPRHQACLLLQKTLSMREVRSCFEDPEWKQLMGQVLAKVTENLRVLGEAQTKAQHQQALSSLELLNVLFRTCKHEKLTLDLTVLLGVLQGQQQSLQQGAHSTGSSRLHDLYWQAMKTLGVQRPKLEKKDAKEIPSATQSPISKKRKKKGFLPETKKRKKRKSEDGTPAEDGTPAATGGSQPPSMGRKKRNRTKAKVPAQANGTPTTKSPAPGAPTRSPSTPAKSPKLQKKNQKPSQVNGAPGSPTEPAGQKQHQKALPKKGVLGKSPLSALARKKARLSLVIRSPSLLQSGAKKKAQVRKAGKP	16	16	2	2	–	–
DDX5 (protein, UniProt P17844 1-614, looked up) Probable ATP-dependent RNA …: MSGYSSDRDRGRDRGFGAPRFGGSRAGPLSGKKFGNPGEKLVKKKWNLDELPKFEKNFYQEHPDLARRTAQEVETYRRSKEITVRGHNCPKPVLNFYEANFPANVMDVIARQNFTEPTAIQAQGWPVALSGLDMVGVAQTGSGKTLSYLLPAIVHINHQPFLERGDGPICLVLAPTRELAQQVQQVAAEYCRACRLKSTCIYGGAPKGPQIRDLERGVEICIATPGRLIDFLECGKTNLRRTTYLVLDEADRMLDMGFEPQIRKIVDQIRPDRQTLMWSATWPKEVRQLAEDFLKDYIHINIGALELSANHNILQIVDVCHDVEKDEKLIRLMEEIMSEKENKTIVFVETKRRCDELTRKMRRDGWPAMGIHGDKSQQERDWVLNEFKHGKAPILIATDVASRGLDVEDVKFVINYDYPNSSEDYIHRIGRTARSTKTGTAYTFFTPNNIKQVSDLISVLREANQAINPKLLQLVEDRGSGRSRGRGGMKDDRRDRYSAGKRGGFNTFRDRENYDRGYSSLLKRDFGAKTQNGVYSAANYTNGSFGSNFVSAGIQTSFRTGNPTGTYQNGYDSTQQYGSNVPNMHNGMNQQAYAYPATAAAPMIGYPMPTGYSQ	8	7	2	2	–	–
ATAD3A (protein, UniProt Q9NVI7 2-586, looked up) ATPase family AAA …: SWLFGINKGPKGEGAGPPPPLPPAQPGAEGGGDRGLGDRPAPKDKWSNFDPTGLERAAKAARELEHSRYAKDALNLAQMQEQTLQLEQQSKLKEYEAAVEQLKSEQIRAQAEERRKTLSEETRQHQARAQYQDKLARQRYEDQLKQQQLLNEENLRKQEESVQKQEAMRRATVEREMELRHKNEMLRVEAEARARAKAERENADIIREQIRLKAAEHRQTVLESIRTAGTLFGEGFRAFVTDWDKVTATVAGLTLLAVGVYSAKNATLVAGRFIEARLGKPSLVRETSRITVLEALRHPIQVSRRLLSRPQDALEGVVLSPSLEARVRDIAIATRNTKKNRSLYRNILMYGPPGTGKTLFAKKLALHSGMDYAIMTGGDVAPMGREGVTAMHKLFDWANTSRRGLLLFVDEADAFLRKRATEKISEDLRATLNAFLYRTGQHSNKFMLVLASNQPEQFDWAINDRINEMVHFDLPGQEERERLVRMYFDKYVLKPATEGKQRLKLAQFDYGRKCSEVARLTEGMSGREIAQLAVSWQATAYASEDGVLTEAMMDTRVQDAVQQHQQKMCWLKAEGPGRGDEPSPS	20	16	2	2	–	–
NOP2 (protein, UniProt P46087 1-812, looked up) 28S rRNA …: MGRKLDPTKEKRGPGRKARKQKGAETELVRFLPAVSDENSKRLSSRARKRAAKRRLGSVEAPKTNKSPEAKPLPGKLPKGISAGAVQTAGKKGPQSLFNAPRGKKRPAPGSDEEEEEEDSEEDGMVNHGDLWGSEDDADTVDDYGADSNSEDEEEGEALLPIERAARKQKAREAAAGIQWSEEETEDEEEEKEVTPESGPPKVEEADGGLQINVDEEPFVLPPAGEMEQDAQAPDLQRVHKRIQDIVGILRDFGAQREEGRSRSEYLNRLKKDLAIYYSYGDFLLGKLMDLFPLSELVEFLEANEVPRPVTLRTNTLKTRRRDLAQALINRGVNLDPLGKWSKTGLVVYDSSVPIGATPEYLAGHYMLQGASSMLPVMALAPQEHERILDMCCAPGGKTSYMAQLMKNTGVILANDANAERLKSVVGNLHRLGVTNTIISHYDGRQFPKVVGGFDRVLLDAPCSGTGVISKDPAVKTNKDEKDILRCAHLQKELLLSAIDSVNATSKTGGYLVYCTCSITVEENEWVVDYALKKRNVRLVPTGLDFGQEGFTRFRERRFHPSLRSTRRFYPHTHNMDGFFIAKFKKFSNSIPQSQTGNSETATPTNVDLPQVIPKSENSSQPAKKAKGAAKTKQQLQKQQHPKKASFQKLNGISKGADSELSTVPSVTKTQASSSFQDSSQPAGKAEGIREPKVTGKLKQRSPKLQSSKKVAFLRQNAPPKGTDTQTPAVLSPSKTQATLKPKDHHQPLGRAKGVEKQQLPEQPFEKAAFQKQNDTPKGPQPPTVSPIRSSRPPPAKRKKSQSRGNSQLLLS	–	–	2	2	2	2
RBM14 (protein, UniProt Q96PK6 1-669, looked up) RNA-binding protein 14: MKIFVGNVDGADTTPEELAALFAPYGTVMSCAVMKQFAFVHMRENAGALRAIEALHGHELRPGRALVVEMSRPRPLNTWKIFVGNVSAACTSQELRSLFERRGRVIECDVVKDYAFVHMEKEADAKAAIAQLNGKEVKGKRINVELSTKGQKKGPGLAVQSGDKTKKPGAGDTAFPGTGGFSATFDYQQAFGNSTGGFDGQARQPTPPFFGRDRSPLRRSPPRASYVAPLTAQPATYRAQPSVSLGAAYRAQPSASLGVGYRTQPMTAQAASYRAQPSVSLGAPYRGQLASPSSQSAAASSLGPYGGAQPSASALSSYGGQAAAASSLNSYGAQGSSLASYGNQPSSYGAQAASSYGVRAAASSYNTQGAASSLGSYGAQAASYGAQSAASSLAYGAQAASYNAQPSASYNAQSAPYAAQQAASYSSQPAAYVAQPATAAAYASQPAAYAAQATTPMAGSYGAQPVVQTQLNSYGAQASMGLSGSYGAQSAAAATGSYGAAAAYGAQPSATLAAPYRTQSSASLAASYAAQQHPQAAASYRGQPGNAYDGAGQPSAAYLSMSQGAVANANSTPPPYERTRLSPPRASYDDPYKKAVAMSKRYGSDRRLAELSDYRRLSESQLSFRRSPTKSSLDYRRLPDAHSDYARYSGSYNDYLRAAQMHSGYQRRM	5	5	2	2	–	–
